This note sets out measurements from paper PMC4182748.

In assay [1] the target is T1, Mxβ19–148 (BACTH fusion) (Myxococcus xanthus) (UniProt Q1D7U3).
T1 sequence: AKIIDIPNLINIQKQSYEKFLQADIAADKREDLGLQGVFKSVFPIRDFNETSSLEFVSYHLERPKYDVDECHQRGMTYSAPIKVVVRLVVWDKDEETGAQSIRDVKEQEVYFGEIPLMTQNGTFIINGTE
In words: two-hybrid; bacterial two-hybrid (BACTH) in E. coli BTH101 (cya-); T25 (pKT25) and T18 (pUT18 or pUT18C) fusions; reporter lacZ read on X-Gal plates and as β-galactosidase activity of liquid cultures; one empty vector as negative control.

Assay [2] has as its target T2, Mxβ19–537 (Myxococcus xanthus) (UniProt Q1D7U3).
T2 sequence: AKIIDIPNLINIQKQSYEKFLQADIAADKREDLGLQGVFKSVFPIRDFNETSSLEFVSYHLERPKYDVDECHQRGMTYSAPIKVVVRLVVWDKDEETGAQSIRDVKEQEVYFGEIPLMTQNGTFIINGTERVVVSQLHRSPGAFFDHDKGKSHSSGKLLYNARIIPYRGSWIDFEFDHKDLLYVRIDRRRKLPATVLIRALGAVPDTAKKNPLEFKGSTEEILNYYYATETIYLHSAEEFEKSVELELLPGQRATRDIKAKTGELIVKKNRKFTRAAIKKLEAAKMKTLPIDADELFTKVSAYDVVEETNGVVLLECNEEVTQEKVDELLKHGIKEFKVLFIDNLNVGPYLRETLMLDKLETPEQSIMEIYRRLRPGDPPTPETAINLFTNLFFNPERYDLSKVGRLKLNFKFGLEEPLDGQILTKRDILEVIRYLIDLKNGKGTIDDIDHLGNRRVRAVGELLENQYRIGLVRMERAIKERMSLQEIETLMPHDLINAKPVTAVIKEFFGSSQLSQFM
The assay is described as above.

The target in assay [3] is T3, Bbβ31–538 (Bdellovibrio bacteriovorus) (UniProt Q6MJ09).
T3 sequence: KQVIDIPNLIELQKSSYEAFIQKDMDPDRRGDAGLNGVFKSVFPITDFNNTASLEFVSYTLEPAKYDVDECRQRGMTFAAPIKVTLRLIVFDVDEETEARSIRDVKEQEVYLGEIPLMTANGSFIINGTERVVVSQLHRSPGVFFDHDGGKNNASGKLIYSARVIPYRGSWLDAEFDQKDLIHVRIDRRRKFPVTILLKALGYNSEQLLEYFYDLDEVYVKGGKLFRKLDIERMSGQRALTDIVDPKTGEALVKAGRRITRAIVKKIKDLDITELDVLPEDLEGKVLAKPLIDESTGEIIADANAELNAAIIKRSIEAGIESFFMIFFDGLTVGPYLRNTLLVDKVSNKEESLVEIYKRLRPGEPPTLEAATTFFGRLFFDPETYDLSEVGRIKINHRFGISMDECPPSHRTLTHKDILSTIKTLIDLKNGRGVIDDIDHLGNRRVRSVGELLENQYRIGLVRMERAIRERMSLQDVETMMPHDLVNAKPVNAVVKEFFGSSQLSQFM
The description is as above.

Assay [4] has as its target T4, Mxβ19–148 D122A (BACTH fusion) (Myxococcus xanthus) (UniProt Q1D7U3).
T4 sequence: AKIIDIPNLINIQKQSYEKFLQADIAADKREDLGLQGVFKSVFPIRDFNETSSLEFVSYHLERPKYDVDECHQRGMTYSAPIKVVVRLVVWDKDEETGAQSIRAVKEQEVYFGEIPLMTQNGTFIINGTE
The assay is described as above.

In assay [5] the target is T5, Mxβ19–148 K124A (BACTH fusion) (Myxococcus xanthus) (UniProt Q1D7U3).
T5 sequence: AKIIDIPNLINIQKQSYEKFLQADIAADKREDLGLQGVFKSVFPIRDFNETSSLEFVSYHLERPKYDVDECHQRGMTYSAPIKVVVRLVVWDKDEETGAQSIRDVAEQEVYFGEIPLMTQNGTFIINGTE
Described as above.

The target in assay [6] is CdnL (purified) (Myxococcus xanthus). As to the kind of experiment: NMR titration; [1H-15N] or [1H-13C] HSQC at 25°C after each addition of unlabeled Mxβ19–148 (0.4–5.0 equivalents) to 0.10–0.25 mM [15N,13C] CdnL, CdnLNt or CdnLCt; both purified.

Results are given in words; binding and its absence hold for the method and conditions named. For some assays here: Binding can be weak; no strength is given. For some assays here: Where a sequence is shown, tags or fusion partners need not be part of it.

Take “CdnL M96A (BACTH fusion) (Myxococcus xanthus)”: the binding entry in assay [1] is on record as “binds”.

For TtCdnL (T. thermophilus), the binding entry in assay [2] is “no binding”. Consider “CdnL F125A (BACTH fusion) (Myxococcus xanthus)”, for which the binding entry in assay [1] is “binds”. On to BbCdnL (Bdellovibrio bacteriovorus), for which the binding entry in assay [3] was “binds”; in assay [2], “no binding”.

As to “CdnL W88A (BACTH fusion) (Myxococcus xanthus)”, in assay [1], the binding result was “binds”. On to ScCdnL (Streptomyces coelicolor), for which, in assay [2], the binding result is listed as “no binding”. In the case of “CdnL R90A/R91A/R93A (BACTH fusion) (Myxococcus xanthus)”, the binding entry in assay [1] was “binds”. Consider “CdnL (BACTH fusion) (Myxococcus xanthus)”, for which the binding entry in assay [1], in assay [4] and in assay [5] was “binds” throughout. Take CgCdnL (Corynebacterium glutamicum): the binding entry in assay [2] is “no binding”. As for “CdnL R128A/K129A (BACTH fusion) (Myxococcus xanthus)”, the binding result in assay [1] is “binds”.

B1: Mxβ19–148 (unlabeled protein) (domain or fragment, UniProt Q1D7U3 19-148)
chain: AKIIDIPNLINIQKQSYEKFLQADIAADKREDLGLQGVFKSVFPIRDFNETSSLEFVSYHLERPKYDVDECHQRGMTYSAPIKVVVRLVVWDKDEETGAQSIRDVKEQEVYFGEIPLMTQNGTFIINGTE
Turning to B1, the binding result in assay [6] is listed as “binds”.
